Values from PubChem BioAssay AID686943 (Drosophila RNAi Screening Center, 2013).
Purpose: 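Fly genes whose loss alters ERK activation after insulin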 (primary screen). Cells: Drosophila S2R+ haemocyte-like cells expressing YFP-tagged ERK (Rolled). Reagent: long dsRNA against Drosophila genes. Treatment: insulin stimulation versus unstimulated cells; dose and duration not given. Read-out: 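Antibody staining for doubly phosphorylated ERK divided by ERK-YFP signal, as plate z-scores, in insulin-treated and untreated cells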. Scale: replicate 1, z-score of dpERK with insulin: higher = more active ERK per ERK-YFP after insulin.
The deposit covers about 23,000 reagents; below is an unselected part of those with a known target gene and a result. 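Extra replicates exist only for a retested subset of genes; insulin dose and duration not given; both raised and lowered dpERK matter.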 Further read-outs or replicates are left out here. Not stated in the record: the amount of reagent, the time to read-out.

CG13725 [DRSC10054] | replicate 1, z-score of dpERK with insulin: -0.66
inaF-A [DRSC19660] | replicate 1, z-score of dpERK with insulin: 0.07
CG2278 [DRSC18226] | replicate 1, z-score of dpERK with insulin: 0.36
CG7409 [DRSC10842] | replicate 1, z-score of dpERK with insulin: 1.19
CG15432 [DRSC00447] | replicate 1, z-score of dpERK with insulin: 3.02
BomS1 (Bomanin Short 1) [DRSC22678] | replicate 1, z-score of dpERK with insulin: -2.78
Egm (Enigma) [DRSC07319] | replicate 1, z-score of dpERK with insulin: 0.84
Egm (Enigma) [DRSC22860] | replicate 1, z-score of dpERK with insulin: 0.54
Sas-4 (Spindle assembly abnormal 4) [DRSC12505] | replicate 1, z-score of dpERK with insulin: 0.38
CG6791 [DRSC16118] | replicate 1, z-score of dpERK with insulin: -0.41
CG12516 [DRSC14524] | replicate 1, z-score of dpERK with insulin: 0.12
CG14434 [DRSC17927] | replicate 1, z-score of dpERK with insulin: 0.63
Sema1b (Semaphorin 1b) [DRSC07550] | replicate 1, z-score of dpERK with insulin: 0.66
qsm (quasimodo) [DRSC05896] | replicate 1, z-score of dpERK with insulin: 0.13
qsm (quasimodo) [DRSC06393] | replicate 1, z-score of dpERK with insulin: -2.04
dpr12 (defective proboscis extension response 12) [DRSC04814] | replicate 1, z-score of dpERK with insulin: 1.44
dpr12 (defective proboscis extension response 12) [DRSC04863] | replicate 1, z-score of dpERK with insulin: 0.58
dpr12 (defective proboscis extension response 12) [DRSC04892] | replicate 1, z-score of dpERK with insulin: 1.36
CG10680 [DRSC02093] | replicate 1, z-score of dpERK with insulin: 0.05
drk (downstream of receptor kinase) [DRSC07606] | replicate 1, z-score of dpERK with insulin: -4.9
GstE14 (Glutathione S transferase E14) [DRSC06881] | replicate 1, z-score of dpERK with insulin: -0.34

Entries above whose target name starts with Q or q (2):
qsm (quasimodo) [DRSC05896] | replicate 1, z-score of dpERK with insulin: 0.13
qsm (quasimodo) [DRSC06393] | replicate 1, z-score of dpERK with insulin: -2.04
